No constants are given. Whether binding was seen depends on the method and setting. In cells and extracts the contact can be indirect. Binding calls can cover weak binding; strength is not graded here. Where a sequence is shown, tags or fusion partners need not be part of it.
Molecular target: T1, nEYFP-fused PDR6 (Arabidopsis thaliana) (UniProt Q7PC87)
T1 sequence: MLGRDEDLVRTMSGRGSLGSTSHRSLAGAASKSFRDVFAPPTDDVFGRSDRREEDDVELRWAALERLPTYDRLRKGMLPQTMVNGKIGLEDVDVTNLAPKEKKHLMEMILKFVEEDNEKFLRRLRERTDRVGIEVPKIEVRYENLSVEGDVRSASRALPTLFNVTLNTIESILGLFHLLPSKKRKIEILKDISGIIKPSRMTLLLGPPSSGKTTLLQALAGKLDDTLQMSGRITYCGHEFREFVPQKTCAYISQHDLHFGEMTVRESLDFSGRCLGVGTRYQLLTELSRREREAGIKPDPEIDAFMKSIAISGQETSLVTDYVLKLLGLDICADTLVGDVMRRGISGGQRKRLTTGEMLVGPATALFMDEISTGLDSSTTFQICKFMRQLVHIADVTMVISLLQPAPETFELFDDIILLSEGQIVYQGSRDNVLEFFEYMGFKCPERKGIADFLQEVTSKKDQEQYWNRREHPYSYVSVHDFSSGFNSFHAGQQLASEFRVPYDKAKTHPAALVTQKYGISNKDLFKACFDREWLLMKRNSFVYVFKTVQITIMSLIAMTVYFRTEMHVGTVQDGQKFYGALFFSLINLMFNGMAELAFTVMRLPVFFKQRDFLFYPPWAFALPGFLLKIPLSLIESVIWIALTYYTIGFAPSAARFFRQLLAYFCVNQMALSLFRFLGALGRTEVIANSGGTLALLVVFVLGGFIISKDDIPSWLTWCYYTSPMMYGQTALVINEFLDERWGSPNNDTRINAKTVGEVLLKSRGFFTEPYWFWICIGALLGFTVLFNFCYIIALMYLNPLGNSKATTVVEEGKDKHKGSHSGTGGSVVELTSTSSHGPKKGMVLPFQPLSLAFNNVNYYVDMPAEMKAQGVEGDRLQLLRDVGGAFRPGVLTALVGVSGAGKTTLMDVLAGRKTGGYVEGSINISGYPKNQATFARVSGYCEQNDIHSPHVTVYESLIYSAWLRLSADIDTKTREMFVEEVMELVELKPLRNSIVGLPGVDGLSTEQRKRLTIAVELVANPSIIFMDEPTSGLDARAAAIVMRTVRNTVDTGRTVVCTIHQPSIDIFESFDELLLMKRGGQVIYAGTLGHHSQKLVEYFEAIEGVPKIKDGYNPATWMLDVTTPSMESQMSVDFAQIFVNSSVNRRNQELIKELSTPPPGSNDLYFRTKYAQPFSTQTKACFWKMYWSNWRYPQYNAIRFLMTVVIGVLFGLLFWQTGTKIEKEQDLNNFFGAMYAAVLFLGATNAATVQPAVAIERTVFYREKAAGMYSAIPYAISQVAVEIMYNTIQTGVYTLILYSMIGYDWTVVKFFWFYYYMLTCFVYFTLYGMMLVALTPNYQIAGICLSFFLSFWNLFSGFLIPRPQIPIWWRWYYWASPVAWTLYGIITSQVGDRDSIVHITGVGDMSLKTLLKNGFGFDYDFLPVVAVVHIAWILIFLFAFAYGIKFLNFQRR
Assay: split reporter

With “cEYFP-fused AGC2-2 (from UniProt Q7DST2) (enzyme)” the binding was “binds”.
